Reference: patent US20060182683A1, “Methods for reduced renal uptake of protein conjugates” (Center for Molecular Medicine and Immunology, priority 1995, published 2006)

Assays:
Assay type in all cases: in vivo
[1] = test system: nude mice bearing GW39 colonic cancer xenografts; experiment: Kidney uptake and dosimetry of 188Re-Fab′ Mu-9 under L-lysine treatment; details: L-lysine treated
From the text: (§1) After cervical dislocation, the animals were dissected.
No effect on the uptake in the tunor or other organs was observed.

[2] = test system: GW39 colonic cancer xenograft bearing nude mice; experiment: Dosimetry of 111In/88Y-Bz-DTPA-Fab′ MN-14 under L-lysine treatment; details: L-lysine four times 2000 μg/g i.p.
Experimental: as §1
To test the effectiveness of L-lysine in reduction of kidney uptake of indium and yttrium-labeled Fab′ fragments, a mixture of ^111In and ^88Y-labeled Fab′ fragments of the anti-CEA antibody MN-14 were injected into GW39 colon carcinoma bearing nude mice (injected with four times 2000 μg/g L-lysine; the control group were untreated). FIG. 4 and Table 4 suns the results.

mice [3] = experiment: Kidney uptake of 125I-labeled Fab′ NP-4 and dosimetry for 131I-labeled Fab′ under L-lysine; details: L-lysine 4 × 2 mg/g
From the text: as §1

mice [4] = experiment: Kidney uptake and dosimetry of yttrium-labeled F(ab′)2 of anti-CD22 LL2 under L-lysine; details: Lys treated

SMILES: NCCCC[C@H](N)C(=O)O [L-lysine]
- T/NT, Blood ([1]; 188Re-Fab′ Mu-9): 3.76
- T/NT, Bone ([1]; 188Re-Fab′ Mu-9): 7.11
- T/NT, Kidney ([1]; 188Re-Fab′ Mu-9): 0.25
- T/NT, Liver ([1]; 188Re-Fab′ Mu-9): 1.30
- T/NT, Lung ([1]; 188Re-Fab′ Mu-9): 1.86
- T/NT, Spleen ([1]; 188Re-Fab′ Mu-9): 2.64
- Blood dose of 188Re-Fab′ Mu-9 [1]: 203.1 cGy/mCi
- Bone dose of 188Re-Fab′ Mu-9 [1]: 107.3 cGy/mCi
- GW39 dose of 188Re-Fab′ Mu-9 [1]: 763.4 cGy/mCi
- Kidney dose of 188Re-Fab′ Mu-9 [1]: 3085.2 cGy/mCi
- Liver dose of 188Re-Fab′ Mu-9 [1]: 587.6 cGy/mCi
- Lung dose of 188Re-Fab′ Mu-9 [1]: 410.4 cGy/mCi
- Spleen dose of 188Re-Fab′ Mu-9 [1]: 289.0 cGy/mCi
- Blood 90Y dose, cGy/mCi based on 88Y [2]: 588.4 cGy/mCi
- Blood 90Y dose, cGy/mCi based on 111In [2]: 508.7 cGy/mCi
- Bone 90Y dose, cGy/mCi based on 88Y [2]: 588.4 cGy/mCi
- Bone 90Y dose, cGy/mCi based on 111In [2]: 508.7 cGy/mCi
- GW39 90Y dose, cGy/mCi based on 88Y [2]: 5751.1 cGy/mCi
- GW39 90Y dose, cGy/mCi based on 111In [2]: 6478.1 cGy/mCi
- Intestine 90Y dose, cGy/mCi based on 88Y [2]: 560.2 cGy/mCi
- Intestine 90Y dose, cGy/mCi based on 111In [2]: 768.1 cGy/mCi
- Kidney 90Y dose, cGy/mCi based on 88Y [2]: 6231.0 cGy/mCi
- Kidney 90Y dose, cGy/mCi based on 111In [2]: 7849.0 cGy/mCi
- Liver 90Y dose, cGy/mCi based on 88Y [2]: 1651.9 cGy/mCi
- Liver 90Y dose, cGy/mCi based on 111In [2]: 2096.8 cGy/mCi
- Lung 90Y dose, cGy/mCi based on 88Y [2]: 431.1 cGy/mCi
- Lung 90Y dose, cGy/mCi based on 111In [2]: 662.8 cGy/mCi
- Spleen 90Y dose, cGy/mCi based on 88Y [2]: 499.2 cGy/mCi
- Spleen 90Y dose, cGy/mCi based on 111In [2]: 564.5 cGy/mCi
- T/NT yttrium, Blood [2]: 9.77
- T/NT yttrium, Bone [2]: 9.77
- T/NT yttrium, Intestine [2]: 10.26
- T/NT yttrium, Kidney [2]: 0.93
- T/NT yttrium, Liver [2]: 3.48
- T/NT yttrium, Lung [2]: 13.3
- T/NT yttrium, Spleen [2]: 11.52
- T/NT yttrium, Washed bone [2]: 11.81
- Washed bone 90Y dose, cGy/mCi based on 88Y [2]: 486.8 cGy/mCi
- Washed bone 90Y dose, cGy/mCi based on 111In [2]: 277.6 cGy/mCi
- Blood dose of 131I-Fab′ NP-4 (mice [3]): 116.6 cGy/mCi
- Kidney dose of 131I-Fab′ NP-4 (mice [3]): 116.6 cGy/mCi
- Liver dose of 131I-Fab′ NP-4 (mice [3]): 77.2 cGy/mCi
- Lung dose of 131I-Fab′ NP-4 (mice [3]): 120.2 cGy/mCi
- Spleen dose of 131I-Fab′ NP-4 (mice [3]): 42.1 cGy/mCi
- Blood dose of yttrium-labeled F(ab′)2 LL2 (mice [4]): 3651.3 cGy/mCi
- Kidney dose of yttrium-labeled F(ab′)2 LL2 (mice [4]): 10813.9 cGy/mCi
- Liver dose of yttrium-labeled F(ab′)2 LL2 (mice [4]): 5375.0 cGy/mCi
- Lungs dose of yttrium-labeled F(ab′)2 LL2 (mice [4]): 2192.1 cGy/mCi
- Spleen dose of yttrium-labeled F(ab′)2 LL2 (mice [4]): 3031.9 cGy/mCi
